The results in this text go back to PMC3335838.

Experiment [1] has as its target T1, APC10/DOC1, yeast two-hybrid fusion (Arabidopsis) (UniProt Q9ZPW2).
T1 sequence: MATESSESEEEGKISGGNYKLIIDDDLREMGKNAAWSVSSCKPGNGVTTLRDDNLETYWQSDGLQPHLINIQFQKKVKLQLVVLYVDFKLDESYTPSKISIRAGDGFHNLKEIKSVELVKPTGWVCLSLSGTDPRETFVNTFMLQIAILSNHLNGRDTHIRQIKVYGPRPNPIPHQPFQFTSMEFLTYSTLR
The experiment in a line: two-hybrid; pair-wise, cross-mating of S. cerevisiae PJ69-4a and PJ69-4 alpha; diploids on SD-LW, interactions selected on -LWA; 28°C for 3 days (Figure 2).

In experiment [2] the target is T2, DRB4 (Double-stranded RNA Binding protein 4), full length, yeast two-hybrid fusion (Arabidopsis) (UniProt Q8H1D4).
T2 sequence: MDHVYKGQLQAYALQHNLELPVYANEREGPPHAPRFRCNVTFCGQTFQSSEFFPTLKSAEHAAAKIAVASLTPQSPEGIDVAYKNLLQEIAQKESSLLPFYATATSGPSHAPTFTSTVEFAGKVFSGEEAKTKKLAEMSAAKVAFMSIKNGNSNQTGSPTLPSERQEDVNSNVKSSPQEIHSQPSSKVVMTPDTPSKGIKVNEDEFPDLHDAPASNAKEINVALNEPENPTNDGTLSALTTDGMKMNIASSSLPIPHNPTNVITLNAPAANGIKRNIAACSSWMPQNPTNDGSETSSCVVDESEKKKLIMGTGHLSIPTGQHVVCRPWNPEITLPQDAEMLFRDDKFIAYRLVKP
The experiment is described as above.

These are yes or no findings as the source states them, for the method shown. For some assays here: Binding calls can cover weak binding; strength is not graded here. Sequences can lack the tags named with a protein.

Take “DRB4 deletion Δ1 (lacks only the first dsRBD), yeast two-hybrid fusion (Arabidopsis) (domain or fragment)”: the binding entry in experiment [1] is “binds”.
The same measure, in the same setting: then “DRB4 deletion Δ2 (lacks the two dsRBDs), yeast two-hybrid fusion (Arabidopsis) (domain or fragment)”, with “no binding”.
On the same count and under the same terms, the same measure for “DRB4 deletion Δ3 (lacks the two dsRBDs), yeast two-hybrid fusion (Arabidopsis) (domain or fragment)”: “no binding”.
With “DRB4 deletion Δ7 (second dsRBD alone), yeast two-hybrid fusion (Arabidopsis) (domain or fragment)”, the binding entry in experiment [1] and in experiment [2] was “no binding” each time.
